From article PMC7862700
The list shows a part of the results, in another mix than the full data. At the low end of the ranking, values are background and their order means little.

Amino acid sequences for entries named in this document (tags omitted). A change or cut given only in a name is not applied to a line headed by its entry.
UniProt Q9Y603: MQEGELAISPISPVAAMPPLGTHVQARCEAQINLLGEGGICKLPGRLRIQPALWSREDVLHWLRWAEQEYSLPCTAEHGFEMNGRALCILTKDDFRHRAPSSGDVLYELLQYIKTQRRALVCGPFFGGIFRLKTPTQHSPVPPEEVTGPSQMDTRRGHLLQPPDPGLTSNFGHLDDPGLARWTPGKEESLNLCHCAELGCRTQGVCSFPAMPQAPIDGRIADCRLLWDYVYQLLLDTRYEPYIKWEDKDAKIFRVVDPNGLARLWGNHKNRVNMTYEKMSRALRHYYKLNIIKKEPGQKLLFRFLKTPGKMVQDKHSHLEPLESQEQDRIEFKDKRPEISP
UniProt P41212: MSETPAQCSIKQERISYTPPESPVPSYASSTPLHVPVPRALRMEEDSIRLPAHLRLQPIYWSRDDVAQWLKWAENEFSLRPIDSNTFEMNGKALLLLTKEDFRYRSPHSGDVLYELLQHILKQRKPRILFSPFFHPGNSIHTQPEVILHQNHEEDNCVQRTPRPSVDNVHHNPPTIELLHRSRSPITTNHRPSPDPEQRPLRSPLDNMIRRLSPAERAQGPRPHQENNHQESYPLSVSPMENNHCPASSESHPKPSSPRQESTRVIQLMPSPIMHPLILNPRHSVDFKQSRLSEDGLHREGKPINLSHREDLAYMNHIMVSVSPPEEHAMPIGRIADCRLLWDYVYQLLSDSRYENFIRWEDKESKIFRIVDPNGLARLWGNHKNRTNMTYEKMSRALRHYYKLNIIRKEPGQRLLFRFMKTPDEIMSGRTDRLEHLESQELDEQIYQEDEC

How the values were obtained:
Experiment in all cases: DAPPL (digital affinity profiling via proximity ligation, sequencing)
Details in all cases: 10 mM Tris-HCl pH 7.5, 50 mM NaCl, 1 mM DTT, 4% glycerol, room temperature, 30 min; GST-TFs on glutathione beads, 16-mer random dsDNA library, 0.1% …; high values mean tight binding; double strand, one strand shown; scale: fold enrichment (6-mer frequency, TF over GST control)
[1] = biological target: T1, ELF3 (UniProt P78545)
T1 sequence: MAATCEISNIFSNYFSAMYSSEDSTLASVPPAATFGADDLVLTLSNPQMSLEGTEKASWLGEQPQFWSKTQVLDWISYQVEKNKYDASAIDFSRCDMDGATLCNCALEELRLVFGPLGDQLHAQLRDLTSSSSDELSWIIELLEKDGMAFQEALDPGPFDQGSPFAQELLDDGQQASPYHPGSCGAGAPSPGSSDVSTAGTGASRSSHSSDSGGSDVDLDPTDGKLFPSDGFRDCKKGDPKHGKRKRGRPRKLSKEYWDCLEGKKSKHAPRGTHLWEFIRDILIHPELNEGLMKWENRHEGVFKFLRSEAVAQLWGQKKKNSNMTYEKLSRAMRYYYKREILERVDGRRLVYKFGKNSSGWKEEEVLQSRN

[2] = biological target: ETV7 (UniProt Q9Y603)
[3] = biological target: ETV6 (UniProt P41212)

Sequence | binding signal [1] | binding signal [2] | binding signal [3]
GGCTAA | 0.999 | 1 | –
TTGGTC | 0.975 | 1.18 | –
GACTCG | 0.836 | 0.854 | 0.848
CCTTCT | 1.54 | 1.45 | –
CCATCC | 1.12 | 1.24 | –
TTCCGC | 3.06 | 3.02 | –
TGGGCA | 0.848 | 0.915 | –
TGGTTG | 0.916 | 0.92 | –
GCGGCT | 0.933 | 0.933 | –
GCGACG | 0.866 | 0.921 | 0.871
AGGGCT | 0.931 | 1.12 | –
ACGGAT | 1.3 | 1.13 | –
CCTGGC | 0.972 | 0.99 | –
AGAGAT | 0.864 | 0.931 | 0.859
TTAGAT | 1.05 | 1.03 | –
TTCTGA | 1.13 | 1.19 | –
GTTGTC | 0.797 | 0.835 | 0.836
TAGCGC | 0.944 | 0.941 | 0.904
AGTAAC | 0.991 | 0.967 | –
CGACGC | 1.28 | 1.05 | –
GCATCT | 0.964 | 0.822 | –
TCGTCA | 0.969 | 0.996 | –
CCCGAT | 1.2 | 1.24 | –

Sequence | binding signal [1] | binding signal [2] | binding signal [3]
CGTCCA | 0.994 | 0.99 | –
CTTATT | 1.51 | 1.43 | –
GGGATT | 0.874 | 0.829 | 0.815
TGGAAT | 1.21 | 1.27 | –
AGATAT | 0.919 | 0.957 | 0.993
ATCAAG | 0.913 | 0.922 | 0.974
ATACAT | 1.15 | 1.36 | –
TCTGGT | 1.34 | 1.35 | –
GCGATC | 0.941 | 0.919 | –
CATAAG | 0.993 | 0.921 | 0.884
CGAACA | 1.2 | 1.2 | –
ACTGTA | 0.943 | 0.978 | –
TTATAT | 1.44 | 1.38 | –
ATAACG | 0.916 | 0.907 | –
CAGATC | 0.9 | 0.92 | 0.951
TCGAAA | 0.921 | 1.05 | 0.901
CGAGTA | 0.9 | 0.862 | 0.83
AGGTTC | 0.988 | 0.791 | 0.783
AGGCAC | 0.726 | 0.872 | 0.885
TAAGGA | 0.963 | 0.831 | 0.824
GCAGCA | 0.86 | 0.89 | 0.912
ACGCGT | 0.992 | 0.99 | 0.962
AGATAA | 0.929 | 0.93 | 1.06

Sequence | binding signal [1] | binding signal [2] | binding signal [3]
GGATTC | 0.898 | 0.9 | 0.903
TCCAGT | 0.608 | 0.719 | 0.648
CCAGCT | 1.04 | 0.997 | 0.882
TCGTAT | 1.05 | 0.924 | 0.985
GAAGGT | 0.938 | 0.977 | 0.874
ACCAAA | 0.892 | 0.93 | 1.03
TGCCAT | 1.08 | 1.09 | 1.1
TAAAGC | 1.06 | 1.04 | 1.02
ATTAGA | 0.762 | 0.897 | 0.869
ACTAGA | 0.961 | 0.913 | 0.883
CACTGA | 0.984 | 0.946 | 0.964
GCCACC | 0.912 | 0.933 | 0.889
GATCAC | 1.04 | 0.977 | 0.918
GTTGGC | 0.72 | 0.89 | 0.948
CCTAAT | 1.52 | 1.31 | 1.31
GCAGAT | 0.958 | 0.831 | 0.903
AGGGAT | 0.801 | 0.869 | 0.815
GTAAGC | 0.939 | 0.982 | 0.975
CGAGGT | 0.901 | 1.02 | 0.938
TCCAGC | 0.894 | 0.882 | 0.955
GTCGAC | 0.96 | 0.986 | 0.946
GAACTG | 0.936 | 0.895 | 0.984
CGCAAA | 1.13 | 0.972 | 0.966

Five records picked at random from those above:
Sequence | binding signal [1] | binding signal [2] | binding signal [3]
ATTAGA | 0.762 | 0.897 | 0.869
GGATTC | 0.898 | 0.9 | 0.903
TCCAGC | 0.894 | 0.882 | 0.955
ACCAAA | 0.892 | 0.93 | 1.03
GAAGGT | 0.938 | 0.977 | 0.874

(listing goes on)

Sequence | binding signal [1] | binding signal [2] | binding signal [3]
AATCGT | 0.832 | 0.828 | 0.909
GCCGTC | 1.17 | 1.03 | 0.935
GTGTAC | 0.823 | 0.999 | 0.908
GGAATA | 0.96 | 0.939 | 0.946
TGTGCG | 0.992 | 0.997 | 1.06
CGCTGT | 0.965 | 0.977 | 0.958
GCCTGA | 0.97 | 0.894 | 0.967
GGATAC | 0.904 | 0.9 | 0.932
AGGATT | 0.792 | 0.878 | 0.989
AACGGT | 0.904 | 0.929 | 1.01
GGCATA | 0.769 | 0.906 | 0.971
AGCTGT | 0.917 | 0.975 | 0.924
AGCGCT | 0.973 | 0.978 | 0.972
GGCAGC | 0.785 | 0.999 | 0.917
GGCTTA | 1.14 | 0.991 | 0.984
GTCTAG | 0.894 | 0.843 | 0.808
GTTGCG | 0.981 | 1.04 | 0.968
CTTGAG | 0.944 | 0.982 | 0.926
CTGTAG | 0.861 | 0.977 | 0.99
ATCCGT | 0.883 | 0.91 | 0.899
TTCGGG | 0.992 | 0.937 | 0.84
AAGGTC | 0.874 | 0.899 | 0.944
